# Measurements as given in PMC9348600.
# Protein sequences, listed by entry. Tags and fused reporters are not part of them. Lines headed by an entry give the natural chain unless they say otherwise; changes in a name come on top.
# UniProt P40763: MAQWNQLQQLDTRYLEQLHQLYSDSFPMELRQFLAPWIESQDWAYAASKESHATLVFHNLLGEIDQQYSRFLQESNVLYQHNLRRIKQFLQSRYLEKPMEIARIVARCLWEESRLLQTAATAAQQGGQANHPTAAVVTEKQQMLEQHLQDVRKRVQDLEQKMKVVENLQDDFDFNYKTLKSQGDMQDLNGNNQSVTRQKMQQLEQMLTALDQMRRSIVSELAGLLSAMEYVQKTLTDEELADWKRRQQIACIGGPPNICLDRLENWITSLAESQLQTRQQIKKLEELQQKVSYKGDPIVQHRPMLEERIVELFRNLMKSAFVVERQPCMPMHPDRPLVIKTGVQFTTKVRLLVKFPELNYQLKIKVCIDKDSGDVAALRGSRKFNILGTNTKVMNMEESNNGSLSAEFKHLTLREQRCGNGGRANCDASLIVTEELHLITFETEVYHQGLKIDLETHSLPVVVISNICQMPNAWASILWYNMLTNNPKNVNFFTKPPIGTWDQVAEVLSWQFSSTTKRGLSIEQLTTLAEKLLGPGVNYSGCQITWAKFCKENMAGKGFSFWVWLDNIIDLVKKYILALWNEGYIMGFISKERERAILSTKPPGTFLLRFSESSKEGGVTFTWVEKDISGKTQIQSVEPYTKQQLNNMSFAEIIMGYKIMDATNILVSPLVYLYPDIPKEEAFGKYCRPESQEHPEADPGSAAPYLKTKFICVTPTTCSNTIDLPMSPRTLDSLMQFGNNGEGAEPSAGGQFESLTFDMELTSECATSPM
# UniProt P19525: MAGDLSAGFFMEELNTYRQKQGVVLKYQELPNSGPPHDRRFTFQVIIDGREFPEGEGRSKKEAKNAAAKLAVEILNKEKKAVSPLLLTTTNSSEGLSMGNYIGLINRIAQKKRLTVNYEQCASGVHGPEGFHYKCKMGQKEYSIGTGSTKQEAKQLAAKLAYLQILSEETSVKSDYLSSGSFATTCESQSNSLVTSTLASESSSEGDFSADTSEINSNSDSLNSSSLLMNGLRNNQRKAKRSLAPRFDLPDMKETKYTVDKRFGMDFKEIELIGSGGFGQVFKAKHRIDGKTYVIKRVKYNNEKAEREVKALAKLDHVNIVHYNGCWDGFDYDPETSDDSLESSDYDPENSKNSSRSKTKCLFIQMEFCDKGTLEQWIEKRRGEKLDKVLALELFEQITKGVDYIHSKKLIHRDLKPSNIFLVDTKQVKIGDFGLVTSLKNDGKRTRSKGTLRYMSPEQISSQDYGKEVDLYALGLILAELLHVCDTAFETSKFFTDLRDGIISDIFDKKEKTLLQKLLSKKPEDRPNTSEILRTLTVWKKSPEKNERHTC
# Results are given in words; binding and its absence hold for the method and conditions named. For some assays here: In cells and extracts the contact can be indirect. Some entries that bind do so weakly or less than the wild type.
# What was measured:
# [1] = target: signal transducer and activator of transcription 3 (STAT3), endogenous in HCC cells (human (endogenous in Huh7 and HepG2.2.15)) (UniProt P40763); test: co-IP; Huh7 and HepG2.2.15 cell lysates in RIPA buffer, with or without STAT3-shRNA knock-down, incubated with anti-STAT3 antibody or IgG and Protein A/G Magnetic Beads at 4 °C overnight; washed with PBS; blot with anti-STAT3 and anti-PKR
# GST-STAT3 fusion protein = GST-STAT3 fusion protein (UniProt P40763); test: pull-down; 20 μg GST-STAT3 or GST held on Glutathione Magnetic Beads in PBS (2 h, 4 °C); 20 μg His-tagged PKR added, overnight at 4 °C; washed with PBS; blot with anti-PKR and Coomassie stain; both purified
binding [1],binding (GST-STAT3 fusion protein),Substance
binds,,"eIF2α kinase PKR, endogenous in HCC cells (from UniProt P19525 1-551)"
,binds,His-tagged PKR (from UniProt P19525 1-551)
